Measured values from patent US20190125753A1, “COMPOUNDS AND METHODS FOR INCREASING HEMATOPOIESIS” (University of Southern California, priority 2016, published 2019).
Some of these results come from one statement about several compounds together.

Tested on: Wnt/β-catenin pathway
Experiment: SuperTOPFLASH (STF1.1 Hek-293) Wnt/β-catenin-driven luciferase reporter
Assay type: cell-based
Details: IC50 Survivin-Hek-293 / IC50 STF 1.1
Protocol: A. Wnt/β-Catenin Activity: The Initial SuperTOPFLASH Screen.
Hek293 cells were stably transfected with plasmid that contains multiple TCF/LEF fragments in front of Luciferase gene. Wnt/β-catenin activity was determined from luciferase expression levels. […] Briefly, stably transfected Hek-293, STFI.1 (Wnt/β-catenin-driven luciferase) and Survivin-Hek-293 (1 Kb Human survivin promoter-driven luciferase) cells were maintained in DMEM, 10% FBS, Pen/Strep with 400 μg/mL G418 or 2 μg/mL puromycin, respectively. To check the activity of ICG-001, YH249, and YH250, the cells were split into white-opaque 96-well plates at 10,000 cells per well and allowed to attach overnight. […] Luciferase activity was read using BrightGlo (Promnega) luciferase substrate. For survivin/luc, the inhibitors were added to the cells and incubated for 24 hours prior to readout. […]
An endogenous human survivin 1 kb promoter was inserted before a luciferase gene. […] Percent inhibition of luciferase activity was calculated according to the following equations; % inhibition of STF 1.1 reporter activity=(I−RLU(10 mM LiCl) treated/RLU(10 omM LiCl) vehicle×control)100, % inhibition of Survivin reporter activity=(1−RLUtreated/RLU vehicle control)×100. […] Selectivity (FIG. 2H) was calculated by IC50 value for Survivin-Hek-293/IC50 value for STF 1.1.

SMILES: COc1cccc(CNC(=O)N2C3CN(Cc4cc(Cl)cc(Cl)c4N(C)C)C(=O)[C@H](Cc4ccc(O)cc4)N3C(=O)CN2C)c1OC (stereo partly shown) [YH250]
- selectivity for the p300/β-catenin interaction relative to the CBP/β-catenin interaction: > 200 fold
